The structures given here were assigned with low confidence; some may be wrong.
What was measured:
DGKz = DGKz (Homo sapiens (Human), UniProt Q13574); assay: DGK ADP-Glo Kinase Assay (DGKz); format: biochemical; settings: read-out: DGKz kinase IC50, 5 nM DGKz, 15 uM ATP
DGKa = DGKa (Homo sapiens (Human), UniProt P23743); assay: DGK ADP-Glo Kinase Assay (DGKa); format: biochemical; settings: read-out: DGKa kinase IC50, 10 nM DGKa, 15 uM ATP

The chains behind the UniProt entries cited, without tags or fusion partners.
UniProt Q13574, whole entry: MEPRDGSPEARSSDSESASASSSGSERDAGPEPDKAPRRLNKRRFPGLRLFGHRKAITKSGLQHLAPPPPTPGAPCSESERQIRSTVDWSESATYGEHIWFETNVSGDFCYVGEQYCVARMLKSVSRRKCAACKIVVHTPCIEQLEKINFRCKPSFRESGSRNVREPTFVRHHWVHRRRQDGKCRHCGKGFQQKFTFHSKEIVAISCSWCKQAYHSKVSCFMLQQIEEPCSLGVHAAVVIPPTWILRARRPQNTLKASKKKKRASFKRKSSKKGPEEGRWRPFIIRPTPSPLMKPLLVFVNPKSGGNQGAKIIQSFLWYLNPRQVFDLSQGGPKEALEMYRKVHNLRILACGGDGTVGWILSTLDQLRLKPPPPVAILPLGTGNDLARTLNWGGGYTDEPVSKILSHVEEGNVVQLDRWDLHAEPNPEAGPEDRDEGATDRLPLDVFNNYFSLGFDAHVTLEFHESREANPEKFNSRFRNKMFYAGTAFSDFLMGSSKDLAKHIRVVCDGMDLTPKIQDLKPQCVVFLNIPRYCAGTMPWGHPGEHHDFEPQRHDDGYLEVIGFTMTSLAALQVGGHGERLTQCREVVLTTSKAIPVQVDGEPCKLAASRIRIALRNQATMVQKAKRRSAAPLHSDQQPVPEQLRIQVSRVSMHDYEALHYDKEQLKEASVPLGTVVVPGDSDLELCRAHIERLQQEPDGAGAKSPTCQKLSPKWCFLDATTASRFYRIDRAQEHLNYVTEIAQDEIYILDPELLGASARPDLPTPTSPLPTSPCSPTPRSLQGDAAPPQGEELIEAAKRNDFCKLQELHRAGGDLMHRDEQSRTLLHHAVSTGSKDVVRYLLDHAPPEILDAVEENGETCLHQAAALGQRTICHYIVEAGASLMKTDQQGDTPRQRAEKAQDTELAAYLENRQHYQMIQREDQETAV
UniProt P23743, whole entry: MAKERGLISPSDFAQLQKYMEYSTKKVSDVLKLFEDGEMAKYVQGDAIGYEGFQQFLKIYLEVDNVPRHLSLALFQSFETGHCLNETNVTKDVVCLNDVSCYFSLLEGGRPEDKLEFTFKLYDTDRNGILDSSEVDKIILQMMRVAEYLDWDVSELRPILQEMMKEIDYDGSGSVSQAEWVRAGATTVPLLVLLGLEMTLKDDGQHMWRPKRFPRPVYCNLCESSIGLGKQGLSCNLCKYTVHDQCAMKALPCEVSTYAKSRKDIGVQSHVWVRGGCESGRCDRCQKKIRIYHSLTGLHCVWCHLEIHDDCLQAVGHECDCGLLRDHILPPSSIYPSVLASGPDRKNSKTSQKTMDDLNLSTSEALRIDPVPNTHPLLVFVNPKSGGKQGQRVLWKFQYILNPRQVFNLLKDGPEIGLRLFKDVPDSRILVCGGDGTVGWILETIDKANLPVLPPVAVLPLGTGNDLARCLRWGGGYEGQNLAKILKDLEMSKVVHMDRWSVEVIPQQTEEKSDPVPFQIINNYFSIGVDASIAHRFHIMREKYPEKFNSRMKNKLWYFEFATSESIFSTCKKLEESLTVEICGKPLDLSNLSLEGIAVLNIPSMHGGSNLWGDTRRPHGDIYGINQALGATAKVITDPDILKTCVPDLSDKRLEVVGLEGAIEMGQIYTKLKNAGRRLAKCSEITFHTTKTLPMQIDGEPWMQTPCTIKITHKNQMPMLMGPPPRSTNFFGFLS

IC50 (DGKz)	IC50 (DGKa)	SMILES
> 1000 nM	< 100 nM	CC[C@@H]1C[C@@H](c2nc3cc(C)ccc3o2)CCN1c1nc(=O)n(C)c2cc(OC3CCOC3)c(Cl)cc12 (single isomer, unassigned)
< 100 nM	< 100 nM	CC[C@H]1C[C@H](c2nc3cc(C)ccc3o2)CCN1c1nc(=O)n(C)c2cc(OC3CCOC3)c(Cl)cc12 (single isomer, unassigned)
